Test results reported in paper PMC9860500.
These are yes or no findings as the source states them, for the method shown. For some of these results: In cells and extracts the contact can be indirect. Some results given as binding are weak or reduced against the parent protein; the word gives no strength. For some of these results: Tags and fused reporters may be left off the sequences shown. Each block holds one molecule with its values, some of them ahead of it.

The chains behind the UniProt entries cited, without tags or fusion partners.
UniProt O94776: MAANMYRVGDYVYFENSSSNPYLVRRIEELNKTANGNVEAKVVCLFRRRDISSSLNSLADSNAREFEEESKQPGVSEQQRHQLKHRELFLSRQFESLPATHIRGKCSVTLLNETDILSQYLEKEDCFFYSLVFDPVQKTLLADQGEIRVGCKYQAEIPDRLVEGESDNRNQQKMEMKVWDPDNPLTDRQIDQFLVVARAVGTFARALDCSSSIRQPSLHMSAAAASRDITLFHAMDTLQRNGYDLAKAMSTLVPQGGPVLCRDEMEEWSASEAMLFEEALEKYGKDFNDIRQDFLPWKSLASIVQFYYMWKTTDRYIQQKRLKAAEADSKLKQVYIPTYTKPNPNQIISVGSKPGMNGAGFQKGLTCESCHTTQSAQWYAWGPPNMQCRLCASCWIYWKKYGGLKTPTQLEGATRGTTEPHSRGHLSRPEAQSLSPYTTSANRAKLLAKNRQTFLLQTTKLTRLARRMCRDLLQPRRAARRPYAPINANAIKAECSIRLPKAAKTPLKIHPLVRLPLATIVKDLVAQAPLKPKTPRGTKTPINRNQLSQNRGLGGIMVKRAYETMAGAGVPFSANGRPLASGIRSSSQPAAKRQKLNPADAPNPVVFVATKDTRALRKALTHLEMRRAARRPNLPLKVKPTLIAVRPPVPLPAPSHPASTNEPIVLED
UniProt Q13330: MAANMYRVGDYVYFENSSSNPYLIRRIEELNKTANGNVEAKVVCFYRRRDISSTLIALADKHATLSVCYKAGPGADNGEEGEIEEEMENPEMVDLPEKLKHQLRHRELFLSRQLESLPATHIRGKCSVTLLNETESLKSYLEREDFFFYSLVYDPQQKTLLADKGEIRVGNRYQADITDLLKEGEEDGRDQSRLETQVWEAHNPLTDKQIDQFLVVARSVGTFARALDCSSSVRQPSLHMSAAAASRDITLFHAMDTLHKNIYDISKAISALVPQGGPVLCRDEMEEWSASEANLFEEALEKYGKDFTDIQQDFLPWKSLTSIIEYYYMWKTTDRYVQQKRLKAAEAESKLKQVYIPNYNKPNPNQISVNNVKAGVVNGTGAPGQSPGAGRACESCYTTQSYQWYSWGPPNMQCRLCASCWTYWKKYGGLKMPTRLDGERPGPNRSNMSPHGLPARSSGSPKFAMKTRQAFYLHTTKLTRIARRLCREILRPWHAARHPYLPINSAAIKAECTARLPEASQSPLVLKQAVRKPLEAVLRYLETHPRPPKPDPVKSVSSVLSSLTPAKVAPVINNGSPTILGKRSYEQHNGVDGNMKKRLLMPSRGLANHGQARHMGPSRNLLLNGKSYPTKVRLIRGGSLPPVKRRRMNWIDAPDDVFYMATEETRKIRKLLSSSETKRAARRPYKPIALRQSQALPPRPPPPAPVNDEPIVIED
UniProt Q13620: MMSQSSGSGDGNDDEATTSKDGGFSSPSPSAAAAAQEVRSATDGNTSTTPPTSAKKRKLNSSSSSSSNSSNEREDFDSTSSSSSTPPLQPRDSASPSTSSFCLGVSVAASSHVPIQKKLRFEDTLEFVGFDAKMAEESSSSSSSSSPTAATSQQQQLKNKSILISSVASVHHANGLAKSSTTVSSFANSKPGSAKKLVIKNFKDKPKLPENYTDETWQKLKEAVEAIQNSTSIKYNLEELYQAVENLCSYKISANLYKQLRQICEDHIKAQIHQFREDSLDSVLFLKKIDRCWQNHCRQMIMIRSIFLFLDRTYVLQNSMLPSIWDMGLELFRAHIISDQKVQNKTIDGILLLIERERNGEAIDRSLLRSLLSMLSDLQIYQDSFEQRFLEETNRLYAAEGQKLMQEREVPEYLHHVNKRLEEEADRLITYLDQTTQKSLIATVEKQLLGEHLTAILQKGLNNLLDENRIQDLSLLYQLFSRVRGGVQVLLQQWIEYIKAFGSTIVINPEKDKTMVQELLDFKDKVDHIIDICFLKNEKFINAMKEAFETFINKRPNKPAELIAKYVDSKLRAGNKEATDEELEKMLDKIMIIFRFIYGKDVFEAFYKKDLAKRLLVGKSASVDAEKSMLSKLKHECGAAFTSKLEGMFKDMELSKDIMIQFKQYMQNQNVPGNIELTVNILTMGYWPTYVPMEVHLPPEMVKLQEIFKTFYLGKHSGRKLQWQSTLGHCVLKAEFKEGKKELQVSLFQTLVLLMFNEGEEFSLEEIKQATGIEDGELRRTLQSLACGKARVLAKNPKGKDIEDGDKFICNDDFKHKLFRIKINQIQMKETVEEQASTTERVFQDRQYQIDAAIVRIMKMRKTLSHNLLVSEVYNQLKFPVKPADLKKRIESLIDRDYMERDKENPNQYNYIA
UniProt Q16531: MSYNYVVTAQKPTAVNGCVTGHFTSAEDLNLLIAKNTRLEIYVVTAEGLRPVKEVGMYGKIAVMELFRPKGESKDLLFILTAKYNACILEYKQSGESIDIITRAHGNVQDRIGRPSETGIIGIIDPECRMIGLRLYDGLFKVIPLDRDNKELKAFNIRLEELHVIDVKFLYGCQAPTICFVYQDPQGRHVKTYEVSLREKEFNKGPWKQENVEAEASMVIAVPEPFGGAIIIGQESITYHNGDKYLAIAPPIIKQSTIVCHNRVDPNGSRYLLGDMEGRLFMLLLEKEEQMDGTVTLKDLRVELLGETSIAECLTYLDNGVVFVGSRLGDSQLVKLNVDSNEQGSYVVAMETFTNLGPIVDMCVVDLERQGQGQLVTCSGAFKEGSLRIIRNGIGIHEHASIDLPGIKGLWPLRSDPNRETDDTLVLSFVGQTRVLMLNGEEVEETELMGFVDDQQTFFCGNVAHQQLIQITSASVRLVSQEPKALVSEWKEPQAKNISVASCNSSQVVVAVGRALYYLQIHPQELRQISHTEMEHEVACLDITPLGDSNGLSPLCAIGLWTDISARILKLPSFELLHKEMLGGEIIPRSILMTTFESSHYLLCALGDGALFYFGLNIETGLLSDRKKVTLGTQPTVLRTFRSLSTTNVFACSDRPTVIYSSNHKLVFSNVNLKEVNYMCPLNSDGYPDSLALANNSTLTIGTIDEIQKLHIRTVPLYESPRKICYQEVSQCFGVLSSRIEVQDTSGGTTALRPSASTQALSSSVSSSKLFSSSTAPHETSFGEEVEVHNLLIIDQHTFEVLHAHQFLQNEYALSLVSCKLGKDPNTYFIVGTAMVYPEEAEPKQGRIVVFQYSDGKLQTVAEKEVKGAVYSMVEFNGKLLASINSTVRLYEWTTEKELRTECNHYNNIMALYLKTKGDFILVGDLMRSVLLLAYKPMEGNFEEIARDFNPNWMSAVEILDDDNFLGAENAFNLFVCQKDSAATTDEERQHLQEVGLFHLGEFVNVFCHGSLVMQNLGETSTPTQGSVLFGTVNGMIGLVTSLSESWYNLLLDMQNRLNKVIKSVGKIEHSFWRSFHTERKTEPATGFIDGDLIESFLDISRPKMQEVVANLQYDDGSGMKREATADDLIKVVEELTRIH
UniProt Q92769: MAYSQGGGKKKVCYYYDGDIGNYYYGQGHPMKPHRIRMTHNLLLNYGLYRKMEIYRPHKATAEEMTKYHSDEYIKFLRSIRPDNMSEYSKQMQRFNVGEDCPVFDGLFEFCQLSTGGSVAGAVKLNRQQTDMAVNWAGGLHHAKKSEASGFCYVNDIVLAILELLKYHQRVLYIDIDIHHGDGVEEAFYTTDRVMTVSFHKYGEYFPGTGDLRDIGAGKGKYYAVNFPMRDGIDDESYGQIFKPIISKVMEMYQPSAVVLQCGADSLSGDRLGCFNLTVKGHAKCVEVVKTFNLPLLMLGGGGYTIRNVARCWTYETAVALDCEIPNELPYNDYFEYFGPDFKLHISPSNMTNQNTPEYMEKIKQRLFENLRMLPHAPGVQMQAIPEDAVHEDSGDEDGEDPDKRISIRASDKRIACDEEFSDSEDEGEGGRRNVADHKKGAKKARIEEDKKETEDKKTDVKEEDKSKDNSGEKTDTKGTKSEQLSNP
UniProt Q13547: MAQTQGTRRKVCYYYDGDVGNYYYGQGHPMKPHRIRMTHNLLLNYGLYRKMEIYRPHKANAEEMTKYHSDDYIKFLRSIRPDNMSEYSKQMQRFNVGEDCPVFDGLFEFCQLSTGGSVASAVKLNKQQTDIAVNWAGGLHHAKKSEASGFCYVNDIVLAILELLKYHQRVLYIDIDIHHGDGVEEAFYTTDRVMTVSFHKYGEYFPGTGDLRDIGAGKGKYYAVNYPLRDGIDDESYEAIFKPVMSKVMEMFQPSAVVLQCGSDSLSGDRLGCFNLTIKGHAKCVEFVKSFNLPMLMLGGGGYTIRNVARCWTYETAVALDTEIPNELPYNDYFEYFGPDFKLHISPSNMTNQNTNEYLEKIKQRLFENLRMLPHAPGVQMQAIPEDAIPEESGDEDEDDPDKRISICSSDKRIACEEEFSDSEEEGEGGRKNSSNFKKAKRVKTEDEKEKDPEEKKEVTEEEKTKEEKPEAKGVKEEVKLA

Key:
[1] = target: T1, CXXC5 (human (endogenous in MCF-7 and MDA-MB-231)) (UniProt Q7LFL8); test: co-IP; endogenous proteins, whole cell lysates of MCF-7 or MDA-MB-231 cells in NETN buffer (150 mM NaCl, 2 mM EDTA, 50 mM Tris-HCl pH 8.0, 0.2% Nonidet P-40), 4 °C, protein G magnetic beads, immunoblotting; both directions
T1 sequence: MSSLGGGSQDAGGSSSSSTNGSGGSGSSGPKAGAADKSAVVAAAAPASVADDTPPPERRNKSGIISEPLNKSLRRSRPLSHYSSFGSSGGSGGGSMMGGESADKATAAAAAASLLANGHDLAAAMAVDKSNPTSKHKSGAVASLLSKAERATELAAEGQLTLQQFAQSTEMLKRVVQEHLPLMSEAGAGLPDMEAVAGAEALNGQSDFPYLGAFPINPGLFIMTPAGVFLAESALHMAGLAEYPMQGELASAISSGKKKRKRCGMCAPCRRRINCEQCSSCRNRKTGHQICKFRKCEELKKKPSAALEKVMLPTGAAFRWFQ

[2] = target: T1, CXXC5 (human (endogenous in MCF-7 and MDA-MB-231)); test: SEC; FPLC of MCF-7 nuclear extract on a Superose 6 column (20 mM Hepes pH 8.0, 10% glycerol, 0.1 mM EDTA, 300 mM NaCl), fractions analysed by Western blotting
GST-tagged CXXC5 = target: T2, GST-tagged CXXC5 (UniProt Q7LFL8); test: pull-down; about 5 ug GST-CXXC5 on glutathione-Sepharose beads with 5 to 8 ul in vitro transcribed/translated product, 75 mM NaCl, 50 mM Hepes pH 7.9, 2 h at 4 °C, detection by Western blotting; only the target purified
T2 sequence: T1 sequence

[3] = target: MTA2 (human (endogenous in MCF-7 and MDA-MB-231)) (UniProt O94776); test: co-IP; endogenous proteins, whole cell lysates of MCF-7 or MDA-MB-231 cells in NETN buffer (150 mM NaCl, 2 mM EDTA, 50 mM Tris-HCl pH 8.0, 0.2% Nonidet P-40), 4 °C, protein G magnetic beads, immunoblotting; both directions
[4] = target: MTA1 (human (endogenous in MCF-7 and MDA-MB-231)) (UniProt Q13330); test: as above
[5] = target: CUL4B (human (endogenous in MCF-7 and MDA-MB-231)) (UniProt Q13620); test: as above
[6] = target: DDB1 (human (endogenous in MCF-7 and MDA-MB-231)) (UniProt Q16531); test: as above
[7] = target: HDAC2 (human (endogenous in MCF-7 and MDA-MB-231)) (UniProt Q92769); test: as above
[8] = target: HDAC1 (human (endogenous in MCF-7 and MDA-MB-231)) (UniProt Q13547); test: as above

binding [1]: binds
binding [2]: binds
Molecule: CUL4B (from UniProt Q13620 1-913)

binding (GST-tagged CXXC5): binds
Molecule: CUL4B (in vitro transcribed/translated) (from UniProt Q13620 1-913)

binding [1]: binds
binding [2]: binds
Molecule: DDB1 (from UniProt Q16531 1-1140)

binding (GST-tagged CXXC5): binds
Molecule: DDB1 (in vitro transcribed/translated) (from UniProt Q16531 1-1140)

binding [1]: binds
binding [2]: binds
Molecule: HDAC1 (from UniProt Q13547 1-482)

binding [1]: binds
binding [2]: binds
Molecule: HDAC2 (from UniProt Q92769 1-488)

binding [3]: binds
binding [4]: binds
binding [5]: binds
binding [6]: binds
binding [7]: binds
binding [8]: binds
B1: CXXC5 (protein, UniProt Q7LFL8 1-322)
chain: T1 sequence
